Measured values from the supplement of paper PMC9454738.
Counter-ions that a name gives are not always drawn. ± gives the standard deviation of the averaged measurements. Some of the results follow. This data set is noisy: repeats of one test often differ as much as different tests do.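 Triple-negative MDA-MB-231 breast cancer cells and their brain-metastatic MDA-MB-231BRM derivative each stably expressed empty vector, full-length GLI1 or truncated tGLI1. CellTiter-Blue measured viability at 48 h relative to 1% DMSO vehicle. Compounds reducing viability 20% more in tGLI1 cells than in vector and GLI1 cells counted as tGLI1-selective.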

Key:
Assay in all cases: cell viability relative to vehicle (DMSO) control (fraction); higher = more viable cells (less growth inhibition)
Conditions in all cases: treatment time 48 h
MDA-MB-231 GLI1 = system: MDA-MB-231 GLI1
MDA-MB-231 Vector = system: MDA-MB-231 Vector
MDA-MB-231 tGLI1 = system: MDA-MB-231 tGLI1
MDA-MB-231BRM GLI1 = system: MDA-MB-231BRM GLI1
MDA-MB-231BRM Vector = system: MDA-MB-231BRM Vector
MDA-MB-231BRM tGLI1 = system: MDA-MB-231BRM tGLI1

| Structure (SMILES) | cell viability (MDA-MB-231 GLI1; 0.05 µM) | cell viability (MDA-MB-231 GLI1; 0.5 µM) | cell viability (MDA-MB-231 GLI1; 5 µM) | cell viability (MDA-MB-231 Vector; 0.05 µM) | cell viability (MDA-MB-231 Vector; 0.5 µM) | cell viability (MDA-MB-231 Vector; 5 µM) | cell viability (MDA-MB-231 tGLI1; 0.05 µM) | cell viability (MDA-MB-231 tGLI1; 0.5 µM) | cell viability (MDA-MB-231 tGLI1; 5 µM) | cell viability (MDA-MB-231BRM GLI1; 0.05 µM) | cell viability (MDA-MB-231BRM GLI1; 0.5 µM) | cell viability (MDA-MB-231BRM GLI1; 5 µM) | cell viability (MDA-MB-231BRM Vector; 0.05 µM) | cell viability (MDA-MB-231BRM Vector; 0.5 µM) | cell viability (MDA-MB-231BRM Vector; 5 µM) | cell viability (MDA-MB-231BRM tGLI1; 0.05 µM) | cell viability (MDA-MB-231BRM tGLI1; 0.5 µM) | cell viability (MDA-MB-231BRM tGLI1; 5 µM) |
| --- | --- | --- | --- | --- | --- | --- | --- | --- | --- | --- | --- | --- | --- | --- | --- | --- | --- | --- |
| CCOc1cc2ncc(C#N)c(Nc3ccc(F)c(Cl)c3)c2cc1NC(=O)/C=C/CN(C)C [Pelitinib (EKB-569)] | 1.32 | 1.27 | -0.023 | 1.94 | 1.19 | 0.0704 | 1.15 | 1.21 | 0.0146 | 0.912 | 1.06 | 0.747 | 1.12 | 0.95 | 0.523 | 1.02 | 1.09 | 0.674 |
| COc1cccc(-n2c(=O)[nH]c3cc(Cl)n(-c4ccc(-c5cccc(OC)c5O)cc4)c3c2=O)c1 | 2.15 | 3.02 | 1.63 | 1.42 | 1.26 | 1.1 | 1.24 | 1.5 | 1.17 | 0.902 | 0.741 | 0.615 | 0.876 | 0.723 | 0.629 | 1.24 | 0.989 | 0.907 |
| Cc1[nH]nc2ccc(-c3cncc(OC[C@@H](N)Cc4ccccc4)c3)cc12 | 0.686 | 0.446 | 0.0699 | 0.795 | 0.474 | 0.168 | 1.02 | 0.621 | 0.0973 | 1.05 | 1.23 | 0.957 | 1.12 | 1.14 | 0.914 | 1.05 | 1.17 | 0.829 |
| COc1ccc(F)c(F)c1C(=O)c1cnc(NC2CCN(S(C)(=O)=O)CC2)nc1N | 1.04 | 0.568 | 0.136 | 1.05 | 0.755 | 0.276 | 1.23 | 0.761 | 0.185 | 0.993 | 1.07 | 1.02 | 1.05 | 1.05 | 0.953 | 1.08 | 1.02 | 0.931 |
| Cc1[nH]c(/C=C2\C(=O)Nc3ccc(S(=O)(=O)Cc4c(Cl)cccc4Cl)cc32)c(C)c1C(=O)N1CCC[C@@H]1CN1CCCC1 | 1.4 | 1.71 | -0.23 | 1.47 | 1.23 | -0.104 | 1.25 | 1.5 | -0.169 | 0.925 | 0.855 | 0.315 | 0.919 | 0.855 | 0.428 | 0.892 | 0.851 | 0.3 |
| NC(=O)c1cn(Cc2c(F)cccc2F)nn1 [Rufinamide (Banzel)] | 1.13 | 1.08 | 1.06 | 0.952 | 1.15 | 1.19 | 1.08 | 1.11 | 1.06 | 0.987 | 0.98 | 0.972 | 1.05 | 0.928 | 0.983 | 0.939 | 1.02 | 1.04 |
| CS(=O)(=O)c1ccc(-c2cnc(N)c(C(=O)Nc3ccccc3)n2)cc1 | 2.13 | 2.86 | 1.61 | 1.27 | 1.23 | 0.714 | 1.36 | 1.28 | 0.899 | 0.756 | 0.693 | 0.593 | 0.877 | 0.731 | 0.715 | 1.11 | 1.05 | 1.06 |
| CC(C)(C)c1nc(-c2cccc(NS(=O)(=O)c3c(F)cccc3F)c2F)c(-c2ccnc(N)n2)s1 | 1.17 ± 0.14 | 1.236 ± 0.0019 | 1.03 ± 0.26 | 1.18 ± 0.083 | 1.08 ± 0.078 | 0.8223 ± 0.0058 | 1.362 ± 0.01 | 1.09 ± 0.052 | 0.953 ± 0.19 | 1.01 ± 0.029 | 1.01 ± 0.024 | 0.954 ± 0.092 | 0.976 ± 0.054 | 1.01 ± 0.067 | 0.635 ± 0.19 | 1.007 ± 0.0076 | 0.997 ± 0.056 | 0.878 ± 0.17 |
| C[S+]([O-])c1ccc(-c2nc(-c3ccc(F)cc3)c(-c3ccncc3)[nH]2)cc1 (configuration not stated) | 1.45 | 1.82 | 1.32 | 1.43 | 1.28 | 0.932 | 1.13 | 1.29 | 1.02 | 0.924 | 0.934 | 0.881 | 0.94 | 0.87 | 0.981 | 0.899 | 0.896 | 0.904 |
| Cc1c(F)cc(C(=O)NC2CC2)cc1-c1ccc(C(=O)NCC(C)(C)C)cn1 | 1.36 | 2 | 1.25 | 1.21 | 1.44 | 1.36 | 1.39 | 1.59 | 1.39 | 1.06 | 0.951 | 0.951 | 1.16 | 1.06 | 0.965 | 0.964 | 0.984 | 0.965 |
| Nc1nccc(Oc2ccc(NC(=O)c3c[nH]cc(-c4ccc(F)cc4)c3=O)cc2F)c1Cl | 1.44 | 1.52 | 1.44 | 1.92 | 1.22 | 1.09 | 1.16 | 0.826 | 1.37 | 1.09 | 1.11 | 0.947 | 0.681 | 0.986 | 1.03 | 1.03 | 1.08 | 0.94 |
| Cc1ccc(NC(=O)c2ccc(CN3CCN(C)CC3)cc2)cc1Nc1nccc(-c2cccnc2)n1 [Imatinib Mesylate] | 1.23 | 1.11 | 1.01 | 1.29 | 1.28 | 1.4 | 1.29 | 1.35 | 0.968 | 1.06 | 0.941 | 0.664 | 0.928 | 0.841 | 0.711 | 1.03 | 0.914 | 0.802 |
| CNC(=O)c1cc(Oc2ccc(NC(=O)Nc3ccc(Cl)c(C(F)(F)F)c3)cc2)ccn1 [Sorafenib (Nexavar)] | 1.42 | 0.969 | 0.884 | 1.42 | 1.19 | 0.786 | 1.43 | 0.948 | 0.751 | 1.1 | 1 | 0.881 | 1.06 | 1 | 0.908 | 1.06 | 1.02 | 0.932 |
| COc1cc([C@@H]2c3cc4c(cc3[C@@H](O[C@@H]3O[C@@H]5CO[C@@H](C)O[C@H]5[C@H](O)[C@H]3O)[C@H]3COC(=O)[C@H]23)OCO4)cc(OC)c1O [Etoposide (VP-16)] | 0.86 | 0.682 | 0.313 | 0.834 | 0.711 | 0.242 | 0.96 | 0.741 | 0.24 | 1 | 1.04 | 0.833 | 0.916 | 0.998 | 1 | 0.972 | 1.09 | 1.07 |

Reformatted: entries from further up.
Structure (SMILES) | cell viability (MDA-MB-231 GLI1; 0.05 µM) | cell viability (MDA-MB-231 GLI1; 0.5 µM) | cell viability (MDA-MB-231 GLI1; 5 µM) | cell viability (MDA-MB-231 Vector; 0.05 µM) | cell viability (MDA-MB-231 Vector; 0.5 µM) | cell viability (MDA-MB-231 Vector; 5 µM) | cell viability (MDA-MB-231 tGLI1; 0.05 µM) | cell viability (MDA-MB-231 tGLI1; 0.5 µM) | cell viability (MDA-MB-231 tGLI1; 5 µM) | cell viability (MDA-MB-231BRM GLI1; 0.05 µM) | cell viability (MDA-MB-231BRM GLI1; 0.5 µM) | cell viability (MDA-MB-231BRM GLI1; 5 µM) | cell viability (MDA-MB-231BRM Vector; 0.05 µM) | cell viability (MDA-MB-231BRM Vector; 0.5 µM) | cell viability (MDA-MB-231BRM Vector; 5 µM) | cell viability (MDA-MB-231BRM tGLI1; 0.05 µM) | cell viability (MDA-MB-231BRM tGLI1; 0.5 µM) | cell viability (MDA-MB-231BRM tGLI1; 5 µM)
COc1cccc(-n2c(=O)[nH]c3cc(Cl)n(-c4ccc(-c5cccc(OC)c5O)cc4)c3c2=O)c1 | 2.15 | 3.02 | 1.63 | 1.42 | 1.26 | 1.1 | 1.24 | 1.5 | 1.17 | 0.902 | 0.741 | 0.615 | 0.876 | 0.723 | 0.629 | 1.24 | 0.989 | 0.907
Cc1[nH]nc2ccc(-c3cncc(OC[C@@H](N)Cc4ccccc4)c3)cc12 | 0.686 | 0.446 | 0.0699 | 0.795 | 0.474 | 0.168 | 1.02 | 0.621 | 0.0973 | 1.05 | 1.23 | 0.957 | 1.12 | 1.14 | 0.914 | 1.05 | 1.17 | 0.829
